No constants are given. Whether binding was seen depends on the method and setting. For some of these results: A result given as binding can be weak or reduced; the word gives no strength.
How the values were obtained:
[1] = target: T1, C-lobe of the EF-domain of hNOX5 (residues 78–161) (human) (UniProt Q96PH1); assay: condition: only in the absence of calcium (80 µM DH-domain with 40 µM lobe); NMR titration; 1H-15N HSQC, labeled N- or C-lobe (40 µM) mixed with unlabeled DH-domain (80 µM), 20 °C, in the absence of calcium; both purified
T1 sequence: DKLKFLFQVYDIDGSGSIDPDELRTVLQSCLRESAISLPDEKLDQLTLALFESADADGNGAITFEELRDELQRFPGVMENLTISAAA

[2] = target: T1, C-lobe of the EF-domain of hNOX5 (residues 78–161) (human); assay: NMR titration; 1H-15N HSQC, labeled N- or C-lobe (40 µM) mixed with unlabeled DH-domain (80 µM), 20 °C, in the presence of calcium; both purified
[3] = target: T2, N-lobe of the EF-domain of hNOX5 (residues 1–77) (human) (UniProt Q96PH1); assay: as above
T2 sequence: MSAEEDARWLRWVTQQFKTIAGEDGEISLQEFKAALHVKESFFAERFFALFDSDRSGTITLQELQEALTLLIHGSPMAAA

[4] = target: T2, N-lobe of the EF-domain of hNOX5 (residues 1–77) (human); assay: NMR titration; 1H-15N HSQC, labeled N- or C-lobe (40 µM) mixed with unlabeled DH-domain (80 µM), 20 °C, in the absence of calcium; both purified

binding [1]: no binding
binding [2]: binds weakly
Substance: C. stagnale DH-domain, thermostable mutant (csDH^PWLELAAA) (Cylindrospermum stagnale) (domain or fragment)
binding [3]: no binding (tested: 80 µM DH-domain with 40 µM lobe)
binding [4]: no binding (tested: 80 µM DH-domain with 40 µM lobe)

— article PMC7317449
